# In all, about 33,000 sequences were measured (“E-score (-0.5 to 0.5)”: median about -0.0034, highest 2% from about 0.25 on). The list shows a part of the results.
# Target: T1, Yap3 (UniProt P38749)
# T1 sequence: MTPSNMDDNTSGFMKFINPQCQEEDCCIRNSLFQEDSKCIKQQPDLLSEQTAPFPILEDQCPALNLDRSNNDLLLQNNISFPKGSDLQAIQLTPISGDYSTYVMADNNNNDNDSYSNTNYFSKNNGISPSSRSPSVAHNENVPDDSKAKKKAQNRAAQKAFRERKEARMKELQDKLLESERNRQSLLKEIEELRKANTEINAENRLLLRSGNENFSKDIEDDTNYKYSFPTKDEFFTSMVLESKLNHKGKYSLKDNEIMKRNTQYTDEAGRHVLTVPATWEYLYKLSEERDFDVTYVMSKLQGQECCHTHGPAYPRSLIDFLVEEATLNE
# Experiment: PBM E-score (8-mer binding enrichment) (E-score (-0.5 to 0.5)); higher = stronger / more preferred TF binding
# Conditions: protein concentration: 100 nM; construct: GST-full length
# Method in brief: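 GST-tagged yeast TFs (full-length or DNA-binding domain) were made by PURExpress in vitro transcription/translation and applied at about 100-200 nM to universal all-10-mer Agilent arrays. The arrays were made double-stranded by primer extension, on fresh or once-stripped slides. Bound protein was detected with fluorescent anti-GST, and scans were normalised with masliner. Each ungapped eight-base word, pooled with its reverse complement, received an E-score (modified Wilcoxon-Mann-Whitney statistic) from the Universal PBM Analysis Suite.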
row,Sequence,PBM E-score
1,CCCTCGCG,-0.0461
2,TAGCTTGA,-0.174
3,ATAATTGA,0.308
4,GACGAAGA,0.0634
5,TCCTCGAA,0.014
6,GAAAATTC,0.0254
7,ACTTGTAG,-0.0348
8,GACTTAGC,-0.136
9,ACAGTGCC,-0.0154
10,ACCTCGGC,-0.00107
11,CACAATCA,0.133
12,GGATACAC,-0.0394
13,ATCTTGCC,0.036
14,AGACGCAT,-0.0155
15,CCATAAAG,-0.0846
16,ATCCGCAC,0.0909
17,CAGGGGAA,-0.141
18,CGTTCGCC,-0.103
19,TCCCCGGA,-0.0742
20,GAACCGCC,-0.0697
21,CTAGTTTC,0.0462
22,CGTAAGGC,-0.0147
23,ATCTAAAA,0.144
24,CTGATAAC,0.147
25,ACCCGAAT,0.0835

row,Sequence,PBM E-score
1,AATTTTTC,0.0818
2,CGCACTCC,-0.218
3,TAATACTA,0.367
4,ACTGACTG,-0.144
5,CCTAATGC,-0.155
6,ACGGAGCC,-0.149
7,AGGCGTAC,-0.186
8,AACGGACA,0.0626
9,AGGCACGG,-0.0528
10,CACACCTG,-0.129
11,ATAATGAG,0.147
12,GCCTACCA,-0.125
13,CTCAGTTC,-0.148
14,GCCGTCTA,-0.0237
15,CATGTTGA,0.255
16,AAGACGTG,-0.0391
17,GCATAGTA,0.137
18,AGATTGAT,-0.0192
19,ATCCCTTA,-0.0465
20,TCTTCAAA,0.0414
21,CCATGCTA,-0.215
22,ATCTGTCG,0.0616
23,GGCGTGCA,-0.177
24,GCTAACAA,0.0597
25,AAGTCTTA,-0.00416

# A different layout for some results above:
row	Sequence	PBM E-score
3	ATAATTGA	0.308
6	GAAAATTC	0.0254
10	ACCTCGGC	-0.00107
14	AGACGCAT	-0.0155
16	ATCCGCAC	0.0909
18	CGTTCGCC	-0.103
21	CTAGTTTC	0.0462

# Later entries.

row,Sequence,PBM E-score
1,GTAACAAC,0.0328
2,AACCAGTA,0.0562
3,ACCATAGA,-0.0556
4,CGTCGATC,0.0519
5,CTCATCGC,-0.0158
6,GTGCATGA,0.0161
7,CTAACAAA,0.111
8,TACACACA,0.0897
9,AAACTGAT,0.0541
10,GTGTGATA,0.203
11,AGGTTTAT,0.182
12,TACCCTAA,0.0145
13,GTGCAACA,-0.131
14,AGTAGAAA,0.131
15,CGATGTTA,0.2
16,CCTGTGCG,0.00483
17,CAACTTAA,0.0567
18,CGGGGAAA,0.162
19,TGCCATAA,0.158
20,GAAGTAAC,0.0537
21,CACTTACC,0.229
22,GACGTTAC,0.00232
23,GTCTGGAA,-0.00013
24,AAGGAGCG,0.00726
25,GCGACATA,0.0664

row,Sequence,PBM E-score
1,AGGGTACC,-0.263
2,ATGATCGA,0.0147
3,ACGGATCC,-0.0602
4,CAATGTGC,0.0307
5,GATATGCA,0.0313
6,GATATCCC,-0.0282
7,AATTCACC,0.0636
8,AAGATGGC,-0.0122
9,GGAGGGTA,-0.0456
10,CCCTACAA,0.0436
11,TGGCCAAA,0.126
12,ACCACCTC,-0.038
13,AAGGTCCG,-0.286
14,GATCGTAC,-0.105
15,CAGTTTCC,-0.00032
16,GATTCGCC,-0.071
17,CGCCAGTA,-0.199
18,AACATTTG,-0.164
19,CTAGCTTC,-0.216
20,ACATCTCT,0.068
21,AGTCGTCA,0.0647
22,GGCAAAAA,0.159
23,AAAACGCG,0.213
24,AATCCCGC,0.107
25,CCAATCTA,0.119

row,Sequence,PBM E-score
1,AGTAAGTC,0.0486
2,TGGAGAAA,-0.0587
3,TCTGTGCA,0.0618
4,TACCAACA,0.22
5,CTATCTAC,0.069
6,GCCTGACA,-0.126
7,CGAATACG,0.133
8,CAACCTCG,-0.0899
9,AAGCAGGT,0.0506
10,CGGCATCC,-0.0173
11,ACCGGAGC,-0.219
12,CTTCCCTC,-0.132
13,ACCTCCCT,-0.26
14,ACGCCACA,0.0621
15,TAGAGGGA,-0.146
16,CGTATACC,-0.179
17,CTGTAAAC,0.0823
18,GTTCGCGA,0.0297
19,ACTAAGAC,-0.0709
20,AGTTATAC,0.127
21,ACCGAGAC,-0.0351
22,GAGCCGCC,-0.215
23,CTGTCCCA,-0.211
24,CTCGTCAA,-0.055
25,CCTCAGCC,-0.204

row,Sequence,PBM E-score
1,GGTCAACC,-0.0758
2,GCTAAACC,-0.156
3,AGATTACA,0.129
4,GAGAGCAA,-0.0508
5,AGCTTTAA,0.0942
6,GAATCGTA,0.0223
7,GAGGTGAA,0.0133
8,AAATAACC,-0.00291
9,AATTTTGG,0.154
10,CCAAAGAG,0.0367
11,TCGTATAA,0.172
12,AGAGGAGG,-0.225
13,CACGCCCA,-0.15
14,AAGGAATA,0.216
15,CGGCGGGA,-0.325
16,ATACGCCA,-0.0884
17,ACGAGTAC,0.0946
18,CAACCGTG,-0.0184
19,CCCACATC,-0.244
20,GCATGTCA,-0.0904
21,GGCCGAAC,-0.163
22,CCCTCCGG,-0.38
23,CGTCGAAA,0.0907
24,GCTTCAAC,0.0512
25,GTTCCCGA,-0.0841

row,Sequence,PBM E-score
1,GCCCTAAC,0.184
2,AAGGACTG,-0.125
3,TAGCTATA,0.0179
4,CTCATGGC,0.0111
5,GTCTCTAA,-0.0177
6,ACACAGTC,-0.0489
7,CCGTCTAG,-0.166
8,CCAAAGCC,-0.105
9,AACCGCAA,0.159
10,CTTTCTCC,-0.166
11,CTAATCAC,0.271
12,CTGATGCC,-0.0823
13,ACTACATA,0.132
14,ATTGGACC,-0.094
15,ATGGAATC,0.237
16,CTCACCAA,0.146
17,ACGTGCGA,-0.133
18,ATTTGTCC,0.162
19,ATCAAGAG,0.208
20,CAGCACCC,-0.285
21,GCTGGCAC,-0.196
22,GGCTATAA,-0.0124
23,AGATAGAT,-0.0222
24,ATCTCACG,-0.0651
25,ATCCTTAG,-0.048

row,Sequence,PBM E-score
1,ATCCCGCC,-0.109
2,ACCACAGG,-0.23
3,AACCTCAT,0.00999
4,GCAACAGA,0.0308
5,CGCAATTC,0.129
6,ACGCGTAA,0.0957
7,AGGCTCAA,-0.214
8,ATGAATGG,0.268
9,ACCCGGAT,-0.265
10,CGGACCAG,-0.107
11,ACACGGCG,-0.113
12,CAAAGCGC,-0.0221
13,GAACTTTA,0.0552
14,GACGAGCC,-0.18
15,CGGGCCTA,-0.255
16,ATGTATAC,0.117
17,CATTGATC,0.142
18,GCATGCTA,-0.144
19,ACGACCCA,-0.0967
20,CGGCCACA,-0.115
21,AATGAACA,0.215
22,GTATACGA,-0.0953
23,CATTTTCC,0.193
24,GGCACGCC,-0.417
25,CAAAAGGC,-0.0663

# Some values from the list.
# Under PBM E-score, CACGCCCA reads -0.15
# Under PBM E-score, TACACACA reads 0.0897
# Under PBM E-score, TCGTATAA reads 0.172
# Under PBM E-score, CGGGCCTA reads -0.255
# Under PBM E-score, TAGCTATA reads 0.0179

# Going on with the list.

row,Sequence,PBM E-score
1,TTAAACAA,-0.026
2,CATCCGGG,-0.18
3,GCCCGCAA,-0.0374
4,AAAGGACT,-0.192
5,GTTCGCCA,-0.0463
6,GAATAGGA,0.0879
7,ATCATCAT,0.139
8,ACGTTTCG,-0.0184
9,ACAGATAT,0.103
10,AAACTAAG,0.186
11,CATCAAAA,0.084
12,CTCTTACA,-0.0244
13,CGGATCTA,-0.0583
14,CGGAGCAA,0.0625
15,ACACGCCA,0.0057
16,ACTCCCGC,-0.074
17,ATGTAAAC,0.248
18,TAGAGCGA,0.174
19,AGCTGTCC,-0.0903

# From the supplement of paper PMC3334620
